Assay results published in the supplement of paper PMC6289059.
“And” between values parts separate entries of the source, which are not always exact repeats. Equal values may be shown once. The list shows a part of the results. Many values rest on one well or one pass, so single values are uncertain.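 Hepatocyte-like cells derived from human stem cells with CRISPR-disrupted DGUOK model liver mtDNA depletion syndrome. Each well's ATP signal was scored against other wells on the same plate, and drugs scoring 3 or above were primary hits.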

tested on: DGUOK Δ14/Δ5 iPSC-derived hepatocyte-like cells (SV20); assay: ATP level (CellTiter-Glo luminescence) Z score relative to plate distribution, under 2-DG glycolysis block; higher = more cellular ATP (rescue of mitochondrial ATP production); details: 5 µM; treatment time: day 15 to day 20 of differentiation (5 days); 2-deoxy-D-glucose: 20 mM for 24 h before assay

Row | Structure (SMILES) | ATP level
1 | CN1[C@H]2C[C@H](OC(=O)[C@H](CO)c3ccccc3)C[C@@H]1[C@@H](O)C2 | inactive: 0.603
2 | CN(C)C(=O)Oc1cccc([N+](C)(C)C)c1 | inactive: -0.0689 and inactive: 0.83
3 | CC1(C)C2CC(=O)[C@]3(C)C(CC[C@@]4(C)[C@H](c5ccoc5)OC(=O)[C@H]5O[C@]543)[C@@]2(C)C(=O)C[C@H]1O (stereo partly drawn) | inactive: 0.729
4 | COc1ccc(C(=O)O)cc1OC | inactive: 1.53
5 | NCC(=O)c1ccccc1 | inactive: 0.932
6 | O=c1c(O)c(-c2ccc(O)c(O)c2)oc2c(O)c(O)cc(O)c12 | inactive: 1.7
7 | CN1CCc2cc3c(cc2C1O)OCO3 (stereo not drawn) | inactive: -6.07
8 | CNCC(O)c1ccc(O)cc1 (stereo not drawn) | inactive: 1.43
9 | CN[C@@H]1[C@@H](O)[C@@H](O[C@@H]2[C@@H](O)[C@H](O[C@H]3O[C@H]([C@@H](C)O)[C@@H](O)[C@H](O)[C@H]3N)[C@@H](N)C[C@H]2N)OC[C@]1(C)O | inactive: -0.0819
10 | CC(C)C[C@H]1C(=O)N2CCC[C@H]2[C@]2(O)O[C@](NC(=O)[C@@H]3C=C4c5cccc6[nH]c(Br)c(c56)C[C@H]4N(C)C3)(C(C)C)C(=O)N12 | inactive: 0.205
11 | CN1[C@@H]2CC[C@H]1C[C@@H](OC(=O)C(CO)c1ccccc1)C2 (stereo partly drawn) | inactive: -0.595
12 | CNC(C)(C)Cc1ccccc1 | inactive: -0.576
13 | CCOP(=S)(OCC)Oc1cc(C)nc(C(C)C)n1 | inactive: 0.788
14 | CC(=O)[C@H]1CC[C@H]2[C@@H]3CCC4C[C@H](O)CC[C@]4(C)[C@H]3C[C@H](O)[C@]12C (stereo partly drawn) [3alpha,12alpha-DIHYDROXY-PREGNAN-20-ONE] | inactive: 1.55
15 | O=[N+]([O-])c1ccc(O)c([N+](=O)[O-])c1 | inactive: 0.139
16 | NCCCNCCSP(=O)(O)O | inactive: -24.9
17 | CN[C@@H](Cc1c[nH]c2ccccc12)C(=O)O | inactive: -0.552
18 | Nc1ccc([As](=O)(O)O)cc1 | inactive: 2.47
19 | COc1cc2occc2c2oc(=O)ccc12 | inactive: 0.192
20 | COP(=S)(OC)Oc1cc(Cl)c(Cl)cc1Cl | inactive: 1.87
21 | CN1C(=O)C(O)N=C(c2ccccc2)c2cc(Cl)ccc21 (stereo not drawn) | active: 3.08

Retrieved by structure from the entries so far (three):
Row | Structure (SMILES) | ATP level
14 | CC(=O)[C@H]1CC[C@H]2[C@@H]3CCC4C[C@H](O)CC[C@]4(C)[C@H]3C[C@H](O)[C@]12C (stereo partly drawn) [3alpha,12alpha-DIHYDROXY-PREGNAN-20-ONE] | inactive: 1.55
6 | O=c1c(O)c(-c2ccc(O)c(O)c2)oc2c(O)c(O)cc(O)c12 | inactive: 1.7
21 | CN1C(=O)C(O)N=C(c2ccccc2)c2cc(Cl)ccc21 (stereo not drawn) | active: 3.08

The list continues:

Row | Structure (SMILES) | ATP level
22 | CCCCCCCCC(=O)NCc1ccc(O)c(OC)c1 | inactive: -0.586
23 | CC1=C2C[C@H]3[C@@H](CC=C4C[C@@H](O)CC[C@@]43C)[C@@H]2CC[C@]12O[C@@H]1C[C@H](C)CN[C@H]1[C@H]2C | inactive: -0.156
24 | COc1cccc2c1cc([N+](=O)[O-])c1c(C(=O)O)cc3c(c12)OCO3 | inactive: 1.25
25 | COc1ccc(/C=C/c2cc(O)cc(O)c2)cc1 | inactive: 1.04
26 | CC[C@H]1CN2CC[C@H]1C[C@H]2[C@H](O)c1ccnc2ccc(OC)cc12 | inactive: 0.156
27 | CC(=O)[O][Hg][c]1ccccc1 | inactive: -3.4
28 | O=c1[nH]c2ccccc2n1C1CCN(CCCC(c2ccc(F)cc2)c2ccc(F)cc2)CC1 | inactive: -1.5
29 | Cc1cc2c(C(C)C)c(O)c(O)c(C=O)c2c(O)c1-c1c(C)cc2c(C(C)C)c(O)c(O)c(C=O)c2c1O | inactive: -6.28
30 | C/C=C(\C)C(=O)O[C@H]1C[C@@H](OC(C)=O)[C@@]2(C(=O)OC)CO[C@H]3[C@@H](O)[C@@](C)([C@]45O[C@@]4(C)[C@H]4C[C@@H]5O[C@@H]5OC=C[C@@]54O)[C@H]4[C@]1(CO[C@]4(O)C(=O)OC)[C@@H]32 | inactive: 2.82
31 | CC(=O)Nc1cc([As](=O)(O)O)ccc1O | inactive: 0.356
32 | C#CCN(C)[C@H](C)Cc1ccccc1 | inactive: -2.89
33 | NCCc1ccccc1 | inactive: 1.46
34 | CN(C)C(=O)Oc1ccc[n+](C)c1 | inactive: 0.352
35 | Cc1cnc[nH]1 | inactive: -2.92
36 | C[C@@H]1O[C@@H](O[C@@H]2C=C3CC[C@@H]4[C@H](CC[C@]5(C)[C@@H](c6ccc(=O)oc6)CC[C@]45O)[C@@]3(C)CC2)[C@H](O)[C@H](O)[C@H]1O | inactive: -16.6
37 | C[C@@H]1O[C@@H](O[C@H]2CC[C@]3(C=O)[C@H]4CC[C@]5(C)[C@@H](C6=CC(=O)OC6)CC[C@]5(O)[C@@H]4CC[C@]3(O)C2)[C@H](O)[C@H](O)[C@H]1O | inactive: -18.4
38 | CN1[C@@H]2C[C@@H](OC(=O)[C@H](CO)c3ccccc3)C[C@H]1[C@@H]1O[C@@H]12 | inactive: -0.0929
39 | CC1(C)C2CC(=O)[C@]3(C)C(CC[C@@]4(C)[C@H](c5ccoc5)OC(=O)C5OC543)[C@@]2(C)[C@@H](O)C[C@H]1O (stereo partly drawn) | inactive: 0.516
40 | O=[N+]([O-])C(Br)(CO)CO | inactive: -11.6
41 | CCOC(=O)C1C(C=C(C)C)C1(C)C (stereo not drawn) | inactive: 2.65
42 | COC1=C[C@@H]2[C@@H]3Cc4ccc(OC)c(O)c4[C@]2(CCN3C)CC1=O | inactive: -1.75

Row | Structure (SMILES) | ATP level
43 | O=C1C=CC(=O)c2ccccc21 | active: 3.1
44 | CN(N)C=O | inactive: -2.7
45 | CCC(C)C(=O)O[C@@H]1C[C@@]2(C)[C@H](c3ccoc3)OC(=O)CC23OC2(C)O[C@]14[C@]1(C)[C@@H](CC(=O)OC)C5(C)CC1(O)[C@](O)(C5OC(=O)C1(C)OC1C)[C@@H](OC(C)=O)[C@]34O2 (stereo partly drawn) | inactive: -1.45
46 | NCC(CC(=O)O)c1ccc(Cl)cc1 (racemic) | inactive: 2.34
47 | CNc1ccccc1C(=O)O | inactive: 0.482
48 | CN1C[C@H](C(=O)N[C@]2(C)O[C@@]3(O)[C@@H]4CCCN4C(=O)[C@H](Cc4ccccc4)N3C2=O)C=C2c3cccc4[nH]cc(c34)C[C@H]21 | inactive: -0.65
49 | [O-][n+]1ccccc1[S-].[O-][n+]1ccccc1[S-].[Zn+2] | active: 3.28
50 | CN1CCN(C(=O)O[C@H]2c3nccnc3C(=O)N2c2ccc(Cl)cn2)CC1 | inactive: 1.64
51 | Cc1c(N)nc([C@H](CC(N)=O)NC[C@H](N)C(N)=O)nc1C(=O)N[C@H](C(=O)N[C@H](C)[C@@H](O)[C@H](C)C(=O)N[C@H](C(=O)NCCc1nc(-c2nc(C(=O)NCCC[S+](C)C)cs2)cs1)[C@@H](C)O)[C@@H](O[C@@H]1O[C@@H](CO)[C@@H](O)[C@H](O)[C@@H]1O[C@H]1O[C@H](CO)[C@@H](O)[C@H](OC(N)=O)[C@@H]1O)c1cnc[nH]1 [BLEOMYCIN (bleomycin B2 shown)] | inactive: 0.248
52 | COc1ccc2c(c1O)-c1c(OC)c(OC)cc3c1[C@H](C2)N(C)CC3 | inactive: 1.39
53 | NC(=O)c1cc([N+](=O)[O-])cc([N+](=O)[O-])c1 | active: 5.09
54 | O=C1CC[C@@]2(O)[C@H]3Cc4ccc(O)c5c4[C@@]2(CCN3CC2CC2)[C@H]1O5 | active: 6.15
55 | C=CCSSCC=C | inactive: -0.854
56 | CC(=O)[C@H]1CC[C@H]2[C@@H]3CC[C@H]4C[C@H](O)CC[C@]4(C)[C@H]3CC[C@]12C | inactive: -0.109
57 | CCOC(=O)CC(SP(=S)(OC)OC)C(=O)OCC (stereo not drawn) | inactive: 0.736
58 | CC(N)Cc1ccc(O)cc1 (stereo not drawn) | inactive: -2.2
59 | CC(NC(C)(C)C)C(=O)c1cccc(Cl)c1 (stereo not drawn) | inactive: -0.0982
60 | NCc1cccnc1 | inactive: -0.0605
61 | O=C(O)CCCO | inactive: 0.0317
62 | CN(C)[C@@H]1C(=O)C(C(N)=O)=C(O)[C@@]2(O)C(=O)C3=C(O)c4c(O)cccc4[C@@](C)(O)[C@H]3C[C@@H]12 | inactive: -1.52
63 | NCC(O)c1ccc(O)cc1 (stereo not drawn) | inactive: 0.164

Row | Structure (SMILES) | ATP level
64 | O=C1c2ccccc2-c2cccc3cccc1c23 | inactive: -3.64
65 | O=c1c2ccccc2[se]n1-c1ccccc1 | inactive: -7.08
66 | Cc1ccc(/N=C/N(C)/C=N/c2ccc(C)cc2C)c(C)c1 | inactive: -0.263
67 | C[C@]12CC[C@H]3[C@@H](CCC4=CC(=O)CC[C@@]43C)[C@@H]1CC[C@@H]2O | inactive: 0.419
68 | c1ccc2c(c1)Nc1ccccc1S2 | inactive: -3.77
69 | C[C@]12CCC(=O)C[C@@H]1CC[C@@H]1[C@@H]2CC[C@]2(C)C(=O)CC[C@@H]12 [5alpha-ANDROSTAN-3,17-DIONE] | inactive: -1.43
70 | CCSCC[C@H](N)C(=O)O | inactive: -0.239
71 | CNC(=O)CSP(=S)(OC)OC | inactive: 0.917
72 | C=CCN1CC[C@]23c4c5ccc(O)c4O[C@H]2C(=O)CC[C@@]3(O)[C@H]1C5 | inactive: -1.01
73 | O=c1n(Cl)c(=O)n(Cl)c(=O)n1Cl | inactive: 2.27
74 | C=CCc1ccc2c(c1)OCO2 | inactive: 0.12
75 | CNC1CC(N)C(O)C(OC2OC(CO)C(O)C3OC4(OC(C(N)CO)C(O)C(O)C4O)OC23)C1O (stereo not drawn) | active: 3.19
76 | COP(=O)(OC)C(O)C(Cl)(Cl)Cl (stereo not drawn) | inactive: 1.61
77 | COP(=O)(OC)OC=C(Cl)Cl | inactive: 0.872
78 | S=C=NCc1ccccc1 | inactive: -0.0139
79 | C[C@]12CCC(=O)C=C1C=C[C@@H]1[C@@H]2CC[C@@]2(C)[C@H]1CC[C@@]2(O)CCC(=O)O | inactive: 1.93
80 | CCNc1nc(Cl)nc(NCC)n1 | inactive: 0.489
81 | Cc1cccc(C)c1NC(=O)CN1CCCC1=O | inactive: -1.97
82 | CO[C@H]1[C@H](O)[C@H](O[C@H]2CC[C@@]3(C=O)[C@H](CC[C@@H]4[C@@H]3CC[C@]3(C)[C@@H](C5=CC(=O)OC5)CC[C@]43O)C2)O[C@@H](C)[C@@H]1O | inactive: -9.25
83 | CC[C@@H](C(=O)[C@@H](C)[C@@H](O)[C@H](C)[C@@H]1O[C@@H]([C@@H](CC)C(=O)O)CC[C@@H]1C)[C@H]1O[C@]2(C=C[C@@H](O)[C@]3(CC[C@@](C)([C@H]4CC[C@](O)(CC)[C@H](C)O4)O3)O2)[C@H](C)C[C@@H]1C | inactive: -13.3
